{"source": "patent US20260083865A1", "about": "(priority 2022, published 2026)", "key": {"[1]": {"test": "general procedure: Fmoc solid-phase peptide synthesis; PS, DEG or ChemMatrix resin with Rink amide, 2-chloro-trityl, 4-methyltrityl or FMPB linker; Sieber amide PS resin for p", "conditions": "for isolated yield / isolated mass: whole synthesis; for step yield: late stage modification step"}, "[2]": {"test": "general procedure: Fmoc solid-phase peptide synthesis; PS resin with 4-methyl trityl linker", "conditions": "whole synthesis, scale 100 μmol"}, "[3]": {"test": "general procedure: Fmoc solid-phase peptide synthesis; DEG Rink amide resin", "conditions": "whole synthesis"}, "[4]": {"test": "general procedure: Fmoc solid-phase peptide synthesis; FMPB PS resin", "conditions": "whole synthesis, scale 50 μmol, one disulfide bridge"}, "[5]": {"test": "general procedure: Fmoc solid-phase peptide synthesis; PS resin with 2-chloro trityl linker", "conditions": "whole synthesis; for isolated mass / isolated yield: one disulfide bridge"}, "[6]": {"test": "general procedure: Fmoc solid-phase peptide synthesis; Sieber amide PS resin", "conditions": "whole synthesis, scale 50 μmol"}, "[7]": {"conditions": "scale 50 mol, one disulfide bridge"}, "[8]": {"conditions": "scale 50 μmol, one disulfide bridge"}}, "data": [{"substance": "AF488Ahx-Ttds-Ttds-Thr-Aib-Phe-[Cys-Lys-Arg-Aib-Asn-Cys]-Tle-Thr-Asp-NH2", "values": [{"measurement": "conjugation yield", "setting": "[1]; conjugation step, one disulfide bridge", "result": 41.3, "unit": "%"}, {"measurement": "isolated yield", "setting": "[1]; overall, scale of the general procedure 25 μmol, 50 μmol or 100 μmol, one disulfide bridge", "result": "overall yield 4%"}]}, {"substance": "Ac-Aib-Pcf-Cys-Lys(Me,Boc)-Arg(Pbf)-Aib-Asn(Trt)-Cys-Tle-en", "values": [{"measurement": "isolated yield", "setting": "[1]; scale 100 μmol", "result": 9.5, "unit": "%"}, {"measurement": "isolated mass", "setting": "[2]", "result": 14.52, "unit": "mg"}]}, {"substance": "Ac-Aib-Pcf-[Cys-Lys(Dde)-Arg-Aib-Asn-Cys]-Tle-en", "values": [{"measurement": "isolated mass", "setting": "[1]; scale 50 μmol", "result": 22.27, "unit": "mg"}, {"measurement": "isolated yield", "setting": "[1]; scale 50 μmol", "result": 16.7, "unit": "%"}]}, {"substance": "Ac-Aib-Pcf-[Cys-Lys(Me)-Arg-Aib-Asn-Cys]-Tle-en-DOTA", "values": [{"measurement": "isolated yield", "setting": "[1]; scale 100 μmol, one disulfide bridge", "result": 3.5, "unit": "%"}, {"measurement": "isolated mass", "setting": "[2]; one disulfide bridge", "result": 5.54, "unit": "mg"}]}, {"substance": "Ac-Aib-Pcf-[Cys-Lys-Arg(Ac)-Aib-Asn-Cys]-Tle-Thr-Cmp-lys(DOTA)-NH2", "values": [{"measurement": "isolated mass", "setting": "[3]; [7]", "result": 27.37, "unit": "mg"}, {"measurement": "isolated yield", "setting": "[3]; [7]", "result": 28.7, "unit": "%"}]}, {"substance": "Ac-Aib-Pcf-[Cys-Lys-Arg-Aib-Asn-Cys]-Tle-en-DOTA", "values": [{"measurement": "isolated mass", "setting": "[1]; [8]", "result": 13.22, "unit": "mg"}, {"measurement": "isolated yield", "setting": "[1]; [8]", "result": 8.5, "unit": "%"}]}, {"substance": "Ac-Aib-Pcf-[Cys-Lys-Gln(Gu)-Aib-Asn-Cys]-Tle-Thr-Cmp-lys(DOTA)-NH2", "values": [{"measurement": "isolated mass", "setting": "[3]; [8]", "result": 16.83, "unit": "mg"}, {"measurement": "isolated yield", "setting": "[3]; [8]", "result": 17.9, "unit": "%"}]}, {"substance": "Ac-Thr-Aib-Pcf-[Cys-Lys-Arg(Ac)-Aib-Asn-Cys]-Tle-Thr-NH2", "values": [{"measurement": "isolated mass", "setting": "[3]; [8]", "result": 1.46, "unit": "mg"}, {"measurement": "isolated yield", "setting": "[3]; [8]", "result": 2.1, "unit": "%"}]}, {"substance": "Ac-Thr-Aib-Pcf-[Cys-Nle-Gln(Gu)-Aib-Asn-Cys]-Tle-Thr-NH2", "values": [{"measurement": "isolated mass", "setting": "[3]; [8]", "result": 9.14, "unit": "mg"}, {"measurement": "isolated yield", "setting": "[3]; [8]", "result": 13.8, "unit": "%"}]}, {"substance": "Ac-Thr-Aib-Phe-[Cys-Lys-Arg-Aib-Asn-Cys]-Tle-NHBu", "values": [{"measurement": "isolated mass", "setting": "[4]", "result": 1.99, "unit": "mg"}, {"measurement": "isolated yield", "setting": "[4]", "result": 3.2, "unit": "%"}]}, {"substance": "Ac-Thr-Aib-Phe-[Cys-Lys-Arg-Aib-Asn-Cys]-Tle-OH", "values": [{"measurement": "isolated mass", "setting": "[5]; scale 25 μmol", "result": 5.06, "unit": "mg"}, {"measurement": "isolated yield", "setting": "[5]; scale 25 μmol", "result": 16.9, "unit": "%"}]}, {"substance": "Ac-Thr-Aib-Phe-[Cys-Lys-Arg-Aib-Asn-Cys]-Tle-Thr-Cmp-lys(DOTA)-NH2", "values": [{"measurement": "isolated mass", "setting": "[3]; [8]", "result": 16.95, "unit": "mg"}, {"measurement": "isolated yield", "setting": "[3]; [8]", "result": 17.5, "unit": "%"}]}, {"substance": "Ac-Thr-Aib-Phe-[Cys-Lys-Arg-Ala-Asn-Cys]-Tle-Thr-Asp-NH2", "values": [{"measurement": "isolated mass", "setting": "[3]; [8]", "result": 11.99, "unit": "mg"}, {"measurement": "isolated yield", "setting": "[3]; [8]", "result": 17.2, "unit": "%"}]}, {"substance": "Ac-Thr-Aib-Phe-[Smc-Lys-Arg-Ala-Asn-Cys]-Tle-Thr-Asp-NH2", "values": [{"measurement": "isolated mass", "setting": "[3]; scale 50 μmol", "result": 5.37, "unit": "mg"}, {"measurement": "isolated yield", "setting": "[3]; scale 50 μmol", "result": 7.6, "unit": "%"}]}, {"substance": "BiDOTA-Cmp-Thr-Aib-Pcf-[Cys-Lys(Me)-Arg(Me)-Aib-Asn-Cys]-Tle-Thr-NH2", "values": [{"measurement": "step yield", "setting": "[1]; one disulfide bridge", "result": 81.88, "unit": "%"}]}, {"substance": "DOTA(OtBu)3-Cmp-Thr(tBu)-Aib-Pcf-Cys(Trt)-Lys(Boc)-Arg(Pbf)-Aib-Asn(Trt)-Cys(Trt)-Tle-OH", "values": [{"measurement": "crude mass", "setting": "[5]; scale 50 μmol", "result": 200, "unit": "mg"}]}, {"substance": "DOTA-Cmp-Thr-Aib-Pcf-[Cys-Lys(Me)-RMe2a-Aib-Asn-Cys]-Tle-Thr-NH2", "values": [{"measurement": "isolated mass", "setting": "[3]; [8]", "result": 8.99, "unit": "mg"}, {"measurement": "isolated yield", "setting": "[3]; [8]", "result": 9.8, "unit": "%"}]}, {"substance": "DOTA-Cmp-Thr-Aib-Pcf-[Cys-Lys-Arg(EtCAyl)-Aib-Asn-Cys]-Tle-Thr-NH2", "values": [{"measurement": "isolated mass", "setting": "[3]; [8]", "result": 7.75, "unit": "mg"}, {"measurement": "isolated yield", "setting": "[3]; [8]", "result": 8.3, "unit": "%"}]}, {"substance": "DOTA-Cmp-Thr-Aib-Pcf-[Cys-Lys-Arg-Aib-Asn-Cys]-Tle-en(Me)", "values": [{"measurement": "isolated yield", "setting": "[1]; [8]", "result": 21.6, "unit": "%"}, {"measurement": "isolated mass", "setting": "[5]; scale 50 μmol", "result": 18.91, "unit": "mg"}]}, {"substance": "DOTA-Cmp-Thr-Aib-Pcf-[Cys-Lys-Urr-Aib-Asn-Cys]-Tle-Thr-NH2", "values": [{"measurement": "isolated mass", "setting": "[3]; [8]", "result": 11.5, "unit": "mg"}, {"measurement": "isolated yield", "setting": "[3]; [8]", "result": 12.7, "unit": "%"}]}, {"substance": "DOTA-Cmp-Thr-Aib-Pcf-[Smc-Lys(Me)-Arg(Me)-Aib-Asn-Cys]-Tle-NH2", "values": [{"measurement": "isolated mass", "setting": "[6]", "result": 6.44, "unit": "mg"}, {"measurement": "isolated yield", "setting": "[6]", "result": 7.4, "unit": "%"}]}, {"substance": "DOTA-Pamb-Aib-Pcf-[Cys-Lys-Arg-Aib-Asn-Cys]-Tle-en", "values": [{"measurement": "isolated mass", "setting": "[5]; scale 50 μmol", "result": 22.81, "unit": "mg"}, {"measurement": "isolated yield", "setting": "[5]; scale 50 μmol", "result": 27.7, "unit": "%"}]}, {"substance": "EuDOTA-Cmp-Thr-Aib-Pcf-[Cys-Lys-Arg-Aib-Asn-Cys]-Tle-Thr-NH2", "values": [{"measurement": "step yield", "setting": "[1]; one disulfide bridge", "result": 72.1, "unit": "%"}]}, {"substance": "GaDOTA-Ttds-Thr-Aib-Phe-[Cys-Lys-Arg-Ala-Asn-Cys]-Tle-Thr-NH2", "values": [{"measurement": "step yield", "setting": "[1]; one disulfide bridge", "result": 86, "unit": "%"}]}, {"substance": "H-Cmp-Thr(tBu)-Aib-Pcf-[Cys-Lys(Me,Boc)-Arg(Me,Pbf)-Aib-Asn(Trt)-Cys]-Tle-Thr(tBu)-NH2", "values": [{"measurement": "isolated mass", "setting": "[1]; scale 100 μmol", "result": 49.66, "unit": "mg"}]}, {"substance": "Hex-Thr-Aib-Pcf-[Cys-Lys-Arg-Aib-Asn-Cys]-Tle-Thr-lys(DOTA-Cmp)-NH2", "values": [{"measurement": "isolated mass", "setting": "[3]; [8]", "result": 13.52, "unit": "mg"}, {"measurement": "isolated yield", "setting": "[3]; [8]", "result": 13.4, "unit": "%"}]}, {"substance": "InDOTA-Ttds-Thr-Aib-Phe-[Cys-Lys-Arg-Ala-Asn-Cys]-Tle-Thr-Asp-NH2", "values": [{"measurement": "step yield", "setting": "[1]; one disulfide bridge", "result": 67.3, "unit": "%"}]}, {"substance": "LaDOTA-Cmp-Thr-Aib-Pcf-[Cys-Lys(Me)-Arg(Me)-Aib-Asn-Cys]-Tle-Thr-NH2", "values": [{"measurement": "step yield", "setting": "[1]; one disulfide bridge", "result": 56.08, "unit": "%"}]}, {"substance": "LuDOTA-Cmp-Thr-Aib-Phe-[Cys-Lys-Arg-Aib-Asn-Cys]-Tle-Thr-NH2", "values": [{"measurement": "step yield", "setting": "[1]; one disulfide bridge", "result": 66.9, "unit": "%"}]}, {"substance": "Macropa-Cmp-Thr-Aib-Pcf-[Cys-Lys(Me)-Arg(Me)-Aib-Asn-Cys]-Tle-Thr-NH2", "values": [{"measurement": "isolated yield", "setting": "[1]; overall, scale 100 μmol", "result": 1.1, "unit": "% overall yield"}]}, {"substance": "N3Ahx-Ttds-Ttds-Thr-Aib-Phe-[Cys-Lys-Arg-Aib-Asn-Cys]-Tle-Thr-Asp-NH2", "values": [{"measurement": "isolated yield", "setting": "[1]; scale 50 μmol", "result": 9.9, "unit": "%"}, {"measurement": "isolated mass", "setting": "[3]; scale 50 μmol", "result": 14.39, "unit": "mg"}]}, {"substance": "PbDOTA-Cmp-Thr-Aib-Pcf-[Cys-Lys(Me)-Arg(Me)-Aib-Asn-Cys]-Tle-Thr-NH2", "values": [{"measurement": "step yield", "setting": "[1]; one disulfide bridge", "result": 78.44, "unit": "%"}]}, {"substance": "nBuCAyl-Thr-Aib-Pcf-[Cys-Lys-Cit-Aib-Asn-Cys]-Tle-Thr-lys(DOTA-Cmp)-NH2", "values": [{"measurement": "isolated mass", "setting": "[3]; [8]", "result": 17.42, "unit": "mg"}, {"measurement": "isolated yield", "setting": "[3]; [8]", "result": 17.2, "unit": "%"}]}]}
